The list shows a part of the results.
How the values were obtained:
Assay in all cases: log2 fold change, soluble protein after heating vs DMSO (PISA); higher = thermal stabilisation; K562 cells, 10 uM, 30 min; active = over 0.2 and 3.5 SD of the protein, either way, in both replicates (recomputed)
[1] = compound: COC1=CC=C(C=C1)CN2C=CC3=C2C=C(C=C3)C(=O)NO
Outline: (§1)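 Soluble protein was quantified by TMTpro 16plex LC-MS/MS after channel sums were equalised. It was obtained as the supernatant after 21,000xg for 90 min from pooled aliquots of K562 cells (2×10^6 cells/mL, 10 μM compound, 30 min) heated for 3 min across 48°C-58°C and extracted in PBS with 0.5% NP-40 at 4°C. Thermal stability values are relative to control samples and come from duplicates. They are given as log2 fold changes.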

The chains behind the UniProt entries cited, without tags or fusion partners. Where a name states a change or a piece, a line headed by the entry shows the natural chain unless it says otherwise.
UniProt Q9Y3C8: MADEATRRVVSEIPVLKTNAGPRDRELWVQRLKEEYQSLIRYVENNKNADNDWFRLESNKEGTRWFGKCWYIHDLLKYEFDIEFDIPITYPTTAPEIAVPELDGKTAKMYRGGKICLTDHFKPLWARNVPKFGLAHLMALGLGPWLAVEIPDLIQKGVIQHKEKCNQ
UniProt Q15386: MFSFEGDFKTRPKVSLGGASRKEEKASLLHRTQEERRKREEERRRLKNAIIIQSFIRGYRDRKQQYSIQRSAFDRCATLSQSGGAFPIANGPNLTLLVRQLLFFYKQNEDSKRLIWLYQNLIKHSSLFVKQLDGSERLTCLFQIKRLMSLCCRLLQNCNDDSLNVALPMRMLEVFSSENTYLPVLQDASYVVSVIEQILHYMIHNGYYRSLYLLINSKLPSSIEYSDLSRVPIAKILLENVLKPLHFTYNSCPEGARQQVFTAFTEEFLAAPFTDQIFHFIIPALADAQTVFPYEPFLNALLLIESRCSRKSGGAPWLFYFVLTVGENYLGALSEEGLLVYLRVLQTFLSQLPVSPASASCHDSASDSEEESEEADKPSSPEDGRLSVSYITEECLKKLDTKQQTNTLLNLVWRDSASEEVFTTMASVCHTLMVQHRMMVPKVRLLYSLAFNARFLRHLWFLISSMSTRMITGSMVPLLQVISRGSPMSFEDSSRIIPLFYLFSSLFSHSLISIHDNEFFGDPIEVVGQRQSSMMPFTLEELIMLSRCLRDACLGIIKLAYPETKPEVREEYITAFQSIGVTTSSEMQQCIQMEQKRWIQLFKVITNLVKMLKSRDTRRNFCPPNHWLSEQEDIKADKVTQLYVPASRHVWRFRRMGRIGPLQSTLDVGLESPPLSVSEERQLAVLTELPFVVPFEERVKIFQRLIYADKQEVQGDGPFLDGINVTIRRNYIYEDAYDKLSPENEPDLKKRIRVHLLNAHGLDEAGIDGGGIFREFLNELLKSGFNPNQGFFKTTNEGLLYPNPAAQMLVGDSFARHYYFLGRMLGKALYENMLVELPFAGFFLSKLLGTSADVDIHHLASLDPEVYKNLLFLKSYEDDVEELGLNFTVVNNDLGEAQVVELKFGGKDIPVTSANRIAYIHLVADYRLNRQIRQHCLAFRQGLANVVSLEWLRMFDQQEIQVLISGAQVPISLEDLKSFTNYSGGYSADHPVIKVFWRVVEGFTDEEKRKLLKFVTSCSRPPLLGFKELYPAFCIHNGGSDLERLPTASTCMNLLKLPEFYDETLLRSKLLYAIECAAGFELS
UniProt Q96RL1: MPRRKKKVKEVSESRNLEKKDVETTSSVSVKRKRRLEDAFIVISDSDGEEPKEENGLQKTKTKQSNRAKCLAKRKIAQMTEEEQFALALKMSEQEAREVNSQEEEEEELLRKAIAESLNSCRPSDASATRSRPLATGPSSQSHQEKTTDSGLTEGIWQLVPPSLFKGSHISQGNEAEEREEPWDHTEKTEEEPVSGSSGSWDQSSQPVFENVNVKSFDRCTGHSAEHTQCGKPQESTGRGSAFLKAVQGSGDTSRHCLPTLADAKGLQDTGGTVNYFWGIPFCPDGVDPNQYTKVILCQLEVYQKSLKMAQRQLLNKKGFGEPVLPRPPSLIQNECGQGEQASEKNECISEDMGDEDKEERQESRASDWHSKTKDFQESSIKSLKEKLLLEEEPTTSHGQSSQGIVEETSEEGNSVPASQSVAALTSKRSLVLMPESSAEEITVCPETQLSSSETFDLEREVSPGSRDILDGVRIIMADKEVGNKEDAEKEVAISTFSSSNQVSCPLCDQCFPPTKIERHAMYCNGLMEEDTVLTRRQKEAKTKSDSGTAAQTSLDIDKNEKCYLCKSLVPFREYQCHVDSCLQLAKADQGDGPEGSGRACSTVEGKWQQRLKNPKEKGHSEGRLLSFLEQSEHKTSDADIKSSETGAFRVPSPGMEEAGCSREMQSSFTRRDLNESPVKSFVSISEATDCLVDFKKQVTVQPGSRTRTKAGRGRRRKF
UniProt Q9NYU1: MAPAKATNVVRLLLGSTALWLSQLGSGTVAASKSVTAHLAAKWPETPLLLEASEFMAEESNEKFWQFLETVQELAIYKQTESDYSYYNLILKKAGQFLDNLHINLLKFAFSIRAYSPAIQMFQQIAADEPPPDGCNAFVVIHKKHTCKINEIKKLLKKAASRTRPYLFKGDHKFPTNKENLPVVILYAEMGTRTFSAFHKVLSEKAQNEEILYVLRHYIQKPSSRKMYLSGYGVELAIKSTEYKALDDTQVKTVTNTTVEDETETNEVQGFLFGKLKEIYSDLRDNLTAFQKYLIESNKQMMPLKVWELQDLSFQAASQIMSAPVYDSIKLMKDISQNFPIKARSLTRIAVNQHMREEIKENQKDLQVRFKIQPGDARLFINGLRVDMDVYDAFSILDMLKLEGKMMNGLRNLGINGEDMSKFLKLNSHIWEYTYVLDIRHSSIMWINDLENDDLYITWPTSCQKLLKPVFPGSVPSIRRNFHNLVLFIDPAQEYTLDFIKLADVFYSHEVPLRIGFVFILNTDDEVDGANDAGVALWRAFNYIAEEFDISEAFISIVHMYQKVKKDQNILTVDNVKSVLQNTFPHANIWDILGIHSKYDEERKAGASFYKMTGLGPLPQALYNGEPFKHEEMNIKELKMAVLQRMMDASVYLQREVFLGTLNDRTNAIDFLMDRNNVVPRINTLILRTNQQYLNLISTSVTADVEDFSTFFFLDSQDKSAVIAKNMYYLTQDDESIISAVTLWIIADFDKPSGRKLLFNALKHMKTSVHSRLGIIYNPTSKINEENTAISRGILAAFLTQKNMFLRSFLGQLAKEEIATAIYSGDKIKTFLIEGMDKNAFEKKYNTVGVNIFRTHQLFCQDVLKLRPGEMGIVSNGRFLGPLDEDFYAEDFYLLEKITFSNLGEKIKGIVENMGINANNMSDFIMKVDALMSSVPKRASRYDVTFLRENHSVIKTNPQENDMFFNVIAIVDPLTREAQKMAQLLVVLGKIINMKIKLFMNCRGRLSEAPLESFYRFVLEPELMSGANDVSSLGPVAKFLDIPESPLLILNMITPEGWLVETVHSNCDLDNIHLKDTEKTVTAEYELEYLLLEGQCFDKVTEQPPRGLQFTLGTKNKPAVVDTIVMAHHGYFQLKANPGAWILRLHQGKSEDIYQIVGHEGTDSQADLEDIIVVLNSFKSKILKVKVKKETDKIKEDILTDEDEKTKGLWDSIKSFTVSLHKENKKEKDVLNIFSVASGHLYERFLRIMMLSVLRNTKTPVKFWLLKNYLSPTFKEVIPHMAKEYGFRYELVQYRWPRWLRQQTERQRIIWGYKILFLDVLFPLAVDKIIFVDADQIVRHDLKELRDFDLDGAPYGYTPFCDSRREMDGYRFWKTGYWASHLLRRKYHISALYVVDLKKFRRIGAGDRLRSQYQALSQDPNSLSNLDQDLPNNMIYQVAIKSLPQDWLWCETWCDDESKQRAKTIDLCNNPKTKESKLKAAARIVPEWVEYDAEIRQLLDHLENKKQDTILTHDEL
UniProt Q14139: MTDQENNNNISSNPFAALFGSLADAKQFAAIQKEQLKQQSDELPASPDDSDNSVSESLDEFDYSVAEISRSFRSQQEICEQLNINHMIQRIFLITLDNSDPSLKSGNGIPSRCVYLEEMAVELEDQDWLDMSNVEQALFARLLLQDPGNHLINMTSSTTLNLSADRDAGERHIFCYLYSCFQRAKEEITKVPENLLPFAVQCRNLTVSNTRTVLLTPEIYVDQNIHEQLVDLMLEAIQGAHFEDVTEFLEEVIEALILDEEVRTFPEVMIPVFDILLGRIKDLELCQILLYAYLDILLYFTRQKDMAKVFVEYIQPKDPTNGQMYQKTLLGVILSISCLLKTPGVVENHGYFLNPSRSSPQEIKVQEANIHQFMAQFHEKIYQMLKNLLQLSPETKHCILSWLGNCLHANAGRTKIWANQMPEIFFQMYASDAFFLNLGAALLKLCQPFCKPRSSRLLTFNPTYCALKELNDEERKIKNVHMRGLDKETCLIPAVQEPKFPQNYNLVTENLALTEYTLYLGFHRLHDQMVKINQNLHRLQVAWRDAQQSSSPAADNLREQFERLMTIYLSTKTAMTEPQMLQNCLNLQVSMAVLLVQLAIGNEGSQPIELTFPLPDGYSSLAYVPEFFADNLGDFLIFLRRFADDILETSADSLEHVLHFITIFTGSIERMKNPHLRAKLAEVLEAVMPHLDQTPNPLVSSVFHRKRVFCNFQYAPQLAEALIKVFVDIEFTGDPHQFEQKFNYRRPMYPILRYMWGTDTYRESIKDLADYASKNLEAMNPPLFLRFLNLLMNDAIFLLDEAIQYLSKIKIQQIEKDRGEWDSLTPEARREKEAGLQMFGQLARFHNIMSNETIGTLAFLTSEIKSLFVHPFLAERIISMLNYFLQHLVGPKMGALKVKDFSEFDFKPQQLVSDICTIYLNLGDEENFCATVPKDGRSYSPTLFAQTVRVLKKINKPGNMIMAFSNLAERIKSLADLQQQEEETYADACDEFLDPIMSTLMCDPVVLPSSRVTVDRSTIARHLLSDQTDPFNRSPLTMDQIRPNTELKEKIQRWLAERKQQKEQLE
UniProt Q96LJ8: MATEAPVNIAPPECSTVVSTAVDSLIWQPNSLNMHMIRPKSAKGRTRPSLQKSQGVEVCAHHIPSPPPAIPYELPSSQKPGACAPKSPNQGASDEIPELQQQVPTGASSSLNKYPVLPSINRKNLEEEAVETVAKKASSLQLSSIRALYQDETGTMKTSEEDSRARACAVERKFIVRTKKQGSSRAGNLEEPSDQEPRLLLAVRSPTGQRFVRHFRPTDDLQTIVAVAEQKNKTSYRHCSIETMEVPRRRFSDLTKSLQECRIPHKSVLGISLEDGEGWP
UniProt Q9UDW1: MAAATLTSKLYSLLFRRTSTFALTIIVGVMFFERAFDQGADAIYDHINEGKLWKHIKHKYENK
UniProt P17480: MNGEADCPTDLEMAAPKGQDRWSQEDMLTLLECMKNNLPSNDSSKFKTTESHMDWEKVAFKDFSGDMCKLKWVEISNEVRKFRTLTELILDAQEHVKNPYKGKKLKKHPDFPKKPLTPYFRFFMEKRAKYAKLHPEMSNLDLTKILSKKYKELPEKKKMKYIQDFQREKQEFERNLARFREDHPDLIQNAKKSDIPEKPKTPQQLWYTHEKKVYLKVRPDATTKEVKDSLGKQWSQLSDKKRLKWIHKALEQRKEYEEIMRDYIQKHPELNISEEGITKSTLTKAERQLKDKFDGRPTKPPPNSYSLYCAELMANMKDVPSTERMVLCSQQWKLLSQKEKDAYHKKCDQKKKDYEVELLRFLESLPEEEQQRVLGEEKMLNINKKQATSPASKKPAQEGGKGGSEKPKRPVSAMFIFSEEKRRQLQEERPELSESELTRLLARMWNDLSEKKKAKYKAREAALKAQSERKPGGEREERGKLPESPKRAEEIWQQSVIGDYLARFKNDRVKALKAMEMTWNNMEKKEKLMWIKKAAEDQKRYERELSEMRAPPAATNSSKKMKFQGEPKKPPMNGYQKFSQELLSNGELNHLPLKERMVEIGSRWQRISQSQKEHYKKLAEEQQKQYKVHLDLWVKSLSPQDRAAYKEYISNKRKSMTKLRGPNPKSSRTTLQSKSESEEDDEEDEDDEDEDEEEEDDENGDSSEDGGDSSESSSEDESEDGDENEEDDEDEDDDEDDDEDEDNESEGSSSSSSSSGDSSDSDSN

filanesib = compound: CON(C)C(=O)N1N=C(c2cc(F)ccc2F)S[C@@]1(CCCN)c1ccccc1 [filanesib]
Outline: as §1

zotarolimus = compound: CO[C@H]1C[C@@H]2CC[C@@H](C)[C@@](O)(O2)C(=O)C(=O)N2CCCC[C@H]2C(=O)O[C@H]([C@H](C)C[C@@H]2CC[C@H](n3cnnn3)[C@H](OC)C2)CC(=O)[C@H](C)/C=C(\C)[C@@H](O)[C@@H](OC)C(=O)[C@H](C)C[C@H](C)/C=C/C=C/C=C/1C [zotarolimus]
Outline: as §1

idasanutlin = compound: COc1cc(C(=O)O)ccc1NC(=O)[C@@H]1N[C@@H](CC(C)(C)C)[C@](C#N)(c2ccc(Cl)cc2F)[C@H]1c1cccc(Cl)c1F [idasanutlin]
Outline: as §1

alisertib = compound: COc1cc(Nc2ncc3c(n2)-c2ccc(Cl)cc2C(c2c(F)cccc2OC)=NC3)ccc1C(=O)O [alisertib]
Outline: as §1

[2] = compound: COc1cc2nc(-c3cc(F)ccc3O)nc(N[C@@H]3CNC[C@H]3C(C)(C)O)c2cc1OC
Outline: as §1

gefitinib = compound: COc1cc2ncnc(Nc3ccc(F)c(Cl)c3)c2cc1OCCCN1CCOCC1 [gefitinib]
Outline: as §1

[3] = compound: COc1cccc2cc(-c3nc([C@H]4CC[C@H](C(=O)O)CC4)n4ncnc(N)c34)[nH]c12
Outline: as §1

lapatinib = compound: CS(=O)(=O)CCNCc1ccc(-c2ccc3ncnc(Nc4ccc(OCc5cccc(F)c5)c(Cl)c4)c3c2)o1 [lapatinib]
Outline: as §1

pictilisib = compound: CS(=O)(=O)N1CCN(Cc2cc3nc(-c4cccc5[nH]ncc45)nc(N4CCOCC4)c3s2)CC1 [pictilisib]
Outline: as §1

[4] = compound: CS(=O)(=O)c1ccc(-c2cnc(N)c(C(=O)Nc3ccccc3)n2)cc1
Outline: as §1

crizotinib = compound: C[C@@H](Oc1cc(-c2cnn(C3CCNCC3)c2)cnc1N)c1c(Cl)ccc(F)c1Cl [crizotinib]
Outline: as §1

[5] = compound: C[C@@H]1COCCN1C2=NC(=NC(=C2)C3(CC3)S(=O)(=O)C)C4=C5C=CNC5=CC=C4
Outline: as §1

[6] = compound: C[C@H](C1=CC=C(C=C1)C(=O)NC2=C3C=CNC3=NC=C2)N
Outline: as §1

duvelisib = compound: C[C@H](Nc1ncnc2nc[nH]c12)c1cc2cccc(Cl)c2c(=O)n1-c1ccccc1 [duvelisib]
Outline: as §1

gandotinib = compound: Cc1cc(Nc2cc(CN3CCOCC3)c3nc(C)c(Cc4ccc(Cl)cc4F)n3n2)n[nH]1 [gandotinib]
Outline: as §1

tozasertib = compound: Cc1cc(Nc2cc(N3CCN(C)CC3)nc(Sc3ccc(NC(=O)C4CC4)cc3)n2)n[nH]1 [tozasertib]
Outline: as §1

[7] = compound: Cc1cc(SCc2sc(-c3ccc(C(F)(F)F)cc3)nc2C)ccc1OCC(=O)O
Outline: as §1

doramapimod = compound: Cc1ccc(-n2nc(C(C)(C)C)cc2NC(=O)Nc2ccc(OCCN3CCOCC3)c3ccccc23)cc1 [doramapimod]
Outline: as §1

ispinesib = compound: Cc1ccc(C(=O)N(CCCN)[C@@H](c2nc3cc(Cl)ccc3c(=O)n2Cc2ccccc2)C(C)C)cc1 [ispinesib]
Outline: as §1

Measured: log2 fold change

UFC1 (UniProt Q9Y3C8)
inactive: [1] 0.007 | filanesib 0.001 | zotarolimus 0.005 | idasanutlin -0.007 | alisertib -0.069 | [2] 0.062 | gefitinib 0.003 | [3] -0.039 | lapatinib -0.045 | pictilisib -0.06 | [4] -0.039 | crizotinib 0.146 | [5] 0.067 | [6] -0.049 | duvelisib -0.007 | gandotinib 0.037 | tozasertib 0.011 | [7] -0.032 | doramapimod -0.033 | ispinesib 0.053

UBE3C (UniProt Q15386)
inactive: [1] 0.05 | filanesib -0.038 | zotarolimus 0.033 | idasanutlin -0.082 | alisertib -0.061 | [2] -0.005 | gefitinib 0.069 | [3] 0.001 | lapatinib 0.028 | pictilisib -0.04 | [4] 0.001 | crizotinib 0.029 | [5] 0.022 | [6] -0.025 | duvelisib 0.027 | gandotinib -0.029 | tozasertib 0.024 | [7] 0.045 | doramapimod -0.022 | ispinesib 0.003

UIMC1 (UniProt Q96RL1)
inactive: [1] -0.177 | filanesib 0.228 | zotarolimus 0.007 | idasanutlin 0.118 | alisertib -0.018 | [2] 0.082 | gefitinib 0.001 | [3] 0.053 | lapatinib 0.049 | pictilisib -0.049 | [4] -0.097 | crizotinib 0.082 | [5] -0.119 | [6] 0.199 | duvelisib -0.079 | gandotinib 0.146 | tozasertib -0.017 | [7] 0.117 | doramapimod 0.047 | ispinesib 0.028

UGGT2 (UniProt Q9NYU1)
inactive: [1] -0.068 | filanesib 0.031 | zotarolimus -0.03 | idasanutlin 0.021 | alisertib -0.003 | [2] -0.121 | gefitinib 0.028 | [3] 0 | lapatinib 0.069 | pictilisib 0.052 | [4] 0.045 | crizotinib 0.027 | [5] -0.039 | [6] 0.17 | duvelisib -0.007 | gandotinib 0.146 | tozasertib -0.014 | [7] 0.072 | doramapimod 0.081 | ispinesib -0.074

USP19 isoform 6 (UniProt O94966)
inactive: [1] -0.015 | filanesib 0.016 | zotarolimus 0.016 | idasanutlin -0.038 | alisertib -0.044 | [2] 0.058 | gefitinib -0.008 | [3] -0.027 | lapatinib -0.026 | pictilisib -0.025 | [4] -0.005 | crizotinib 0.045 | [5] 0.016 | [6] -0.033 | duvelisib 0.012 | gandotinib -0.124 | tozasertib 0.019 | [7] 0.042 | doramapimod 0.012 | ispinesib 0.034

UBE4A isoform 2 (UniProt Q14139)
active: [6] 0.29
inactive: [1] 0.037 | filanesib -0.023 | zotarolimus -0.003 | idasanutlin 0.008 | alisertib -0.003 | [2] -0.024 | gefitinib -0.056 | [3] -0.073 | lapatinib 0.022 | pictilisib 0.016 | [4] 0.036 | crizotinib -0.275 | [5] 0.069 | gandotinib -0.076 | [7] 0.117 | doramapimod -0.023 | ispinesib -0.172

UBXN10 (UniProt Q96LJ8)
inactive: [1] 0.059 | filanesib 0.038 | zotarolimus -0.049 | alisertib 0.016 | [2] -0.071 | gefitinib -0.079 | [3] -0.11 | lapatinib 0.097 | pictilisib -0.008 | [4] -0.03 | crizotinib -0.121 | [5] -0.091 | [6] -0.09 | gandotinib 0.161 | [7] -0.008 | doramapimod -0.014 | ispinesib -0.124

UQCR10 (UniProt Q9UDW1)
inactive: [1] -0.084 | filanesib -0.05 | zotarolimus -0.02 | idasanutlin 0.031 | alisertib -0.005 | [2] 0.037 | gefitinib -0.028 | [3] 0.022 | lapatinib -0.038 | pictilisib -0.063 | [4] -0.036 | crizotinib 0.079 | [5] 0.071 | [6] -0.043 | [7] 0.013 | doramapimod -0.025 | ispinesib 0.095
active: gandotinib -0.403

UBTF (UniProt P17480)
inactive: [1] -0.402 | filanesib -0.032 | zotarolimus -0.143 | idasanutlin 0.218 | alisertib -0.269 | [3] -0.128 | pictilisib -0.154 | [4] 0 | crizotinib 0.204 | [6] 0.135 | gandotinib -0.072 | doramapimod 0.195 | ispinesib -0.114

Source: the supplement of paper PMC10849652
